Data published in PubChem BioAssay AID2417 (National Center for Advancing Translational Sciences (NCATS), 2010).
Hit rate of the full screen: of about 140,000 compounds, about 4,300 (3.1%) were called active. Inconclusive results, whose numbers are uncertain, are shown with a selection of clear calls.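 Rule for the calls: active = readout at or below -70, meaning at least 70% loss of cells showing the perinucleolar compartment, a nuclear body marking cancer cells; inconclusive = readout between -30 and a set limit; inactive = the rest.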

Assay: High Content Assay for Compounds that inhibit the Assembly of the Perinucleolar Compartment;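 note: plate controls were DMSO wells for no effect and camptothecin positive control wells for full effect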
Details: PC3M PTB-GFP, PNC prevalence imaging, 16 h; at 10 µM; stronger effect = lower value
Method in brief: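 PC3M cells stably expressing PTB-GFP, 750–1000 cells/well, treated 16 h at 37 °C with compound (23 nl of library stock), in duplicate. After paraformaldehyde fixation and Hoechst stain, imaged at 20x; PNC prevalence scored by image analysis.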

Row | SMILES | activity change (PNC), negative = inhibition
1 | COc1cc(/C=N/NC(=O)CCn2c3ccccc3c3ccccc32)cc(OC)c1OC | inconclusive: -55.4%
2 | O=C(c1ccc2c(c1)OCO2)N1CCNc2ccccc2C1 | inactive: -29.9%
3 | CN(C)C(=O)COC(=O)c1ccccc1Nc1ccc(SC(F)F)cc1 | active: -105%
4 | O=c1cc(-c2ccccc2)nc2nc(-c3ccccc3)[nH]n12 | inconclusive: -47.2%
5 | CC/C(=N\NC(=O)CSCc1ccc(Cl)cc1)c1ccc2c(c1)OCCO2 | inconclusive: -38.6%
6 | O=C(c1cc(-c2ccco2)on1)N1CCCc2ccccc21 | inconclusive: -55.9%
7 | CC(=O)NC1=NN(C(C)=O)C(c2cccs2)S1 (stereo not given) | active: -100%
8 | Cc1cccc(N=C2NC(=O)/C(=C/C=C/c3ccco3)S2)c1 | inactive: 26.1%
9 | CN(C(=O)CSCC(=O)O)C1CCCCC1 | inconclusive: -31.6%
10 | CNC(=O)/C(C#N)=C/c1c(N(Cc2ccccc2)Cc2ccccc2)nc2c(C)cccn2c1=O | inactive: 8.7%
11 | O=C(CSc1nc2ccc(Cl)cc2[nH]1)Nc1ccc2c(c1)CCC2 | inactive: 22.4%
12 | COc1ccccc1N1CCN(CC(=O)c2ccc3ccn(C(C)=O)c3c2)CC1 | inactive: -10.8%
13 | CCOC(=O)N1CCC(NCCNC(=O)c2cccs2)CC1 | inconclusive: -52.1%
14 | O=c1n(Cc2ccc(Cl)cc2)c2sc3c(c2c2ncnn12)CCCC3 | inconclusive: -46.1%
15 | O=C(NC(Cc1ccccc1)C(=O)O)C1CCCCC1 (stereo not given) | inconclusive: -50.4%
16 | Cc1ccc(C(=O)/C=C/Nc2ccc(S(=O)(=O)Nc3onc(C)c3C)cc2)cc1 | inconclusive: -62.4%
17 | CSc1nsc(SCCN2C(=O)c3ccccc3C2=O)n1 | inconclusive: -41.4%
18 | COc1ccccc1-c1nnc(SCC(=O)Nc2ccccc2)o1 | inconclusive: -35.2%
19 | CCOC(=O)Cn1c(=NC(=O)c2ccc([N+](=O)[O-])s2)sc2ccccc21 | inactive: -18.3%
20 | COc1ccc(CC(=O)Nc2nc3ccc(F)cc3s2)cc1S(=O)(=O)N1CCOCC1 | inconclusive: -62.8%
21 | COc1cc(OC)cc(C(=O)N2CCN(Cc3ccccc3C(F)(F)F)CC2)c1 | inconclusive: -51%
22 | CN(C)/C=C(\C#N)c1nc2ccccc2[nH]1 | inconclusive: -66.5%
23 | CCOc1ccccc1NC(=O)CSc1nnc(CNC(=O)COc2ccc(Cl)cc2)o1 | inconclusive: -34.5%
24 | Cc1nn(-c2ccc(F)cc2)c(C)c1NS(=O)(=O)c1ccc(Cl)cc1 | inactive: -25.5%
25 | CCCCNC(=O)c1ccccc1NC(=O)CCSc1ccccc1 | inconclusive: -31.1%

Some values from the entries so far.
In activity change (PNC), negative = inhibition, Cc1ccc(C(=O)/C=C/Nc2ccc(S(=O)(=O)Nc3onc(C)c3C)cc2)cc1 shows inconclusive: -62.4%
In activity change (PNC), negative = inhibition, COc1ccccc1N1CCN(CC(=O)c2ccc3ccn(C(C)=O)c3c2)CC1 shows inactive: -10.8%
